From the supplement of paper PMC10849652
This is one part of the list.

By UniProt entry, the sequences of proteins in these tests, tags left out. Where a name states a change or a piece, a line headed by the entry shows the natural chain unless it says otherwise.
UniProt Q14980: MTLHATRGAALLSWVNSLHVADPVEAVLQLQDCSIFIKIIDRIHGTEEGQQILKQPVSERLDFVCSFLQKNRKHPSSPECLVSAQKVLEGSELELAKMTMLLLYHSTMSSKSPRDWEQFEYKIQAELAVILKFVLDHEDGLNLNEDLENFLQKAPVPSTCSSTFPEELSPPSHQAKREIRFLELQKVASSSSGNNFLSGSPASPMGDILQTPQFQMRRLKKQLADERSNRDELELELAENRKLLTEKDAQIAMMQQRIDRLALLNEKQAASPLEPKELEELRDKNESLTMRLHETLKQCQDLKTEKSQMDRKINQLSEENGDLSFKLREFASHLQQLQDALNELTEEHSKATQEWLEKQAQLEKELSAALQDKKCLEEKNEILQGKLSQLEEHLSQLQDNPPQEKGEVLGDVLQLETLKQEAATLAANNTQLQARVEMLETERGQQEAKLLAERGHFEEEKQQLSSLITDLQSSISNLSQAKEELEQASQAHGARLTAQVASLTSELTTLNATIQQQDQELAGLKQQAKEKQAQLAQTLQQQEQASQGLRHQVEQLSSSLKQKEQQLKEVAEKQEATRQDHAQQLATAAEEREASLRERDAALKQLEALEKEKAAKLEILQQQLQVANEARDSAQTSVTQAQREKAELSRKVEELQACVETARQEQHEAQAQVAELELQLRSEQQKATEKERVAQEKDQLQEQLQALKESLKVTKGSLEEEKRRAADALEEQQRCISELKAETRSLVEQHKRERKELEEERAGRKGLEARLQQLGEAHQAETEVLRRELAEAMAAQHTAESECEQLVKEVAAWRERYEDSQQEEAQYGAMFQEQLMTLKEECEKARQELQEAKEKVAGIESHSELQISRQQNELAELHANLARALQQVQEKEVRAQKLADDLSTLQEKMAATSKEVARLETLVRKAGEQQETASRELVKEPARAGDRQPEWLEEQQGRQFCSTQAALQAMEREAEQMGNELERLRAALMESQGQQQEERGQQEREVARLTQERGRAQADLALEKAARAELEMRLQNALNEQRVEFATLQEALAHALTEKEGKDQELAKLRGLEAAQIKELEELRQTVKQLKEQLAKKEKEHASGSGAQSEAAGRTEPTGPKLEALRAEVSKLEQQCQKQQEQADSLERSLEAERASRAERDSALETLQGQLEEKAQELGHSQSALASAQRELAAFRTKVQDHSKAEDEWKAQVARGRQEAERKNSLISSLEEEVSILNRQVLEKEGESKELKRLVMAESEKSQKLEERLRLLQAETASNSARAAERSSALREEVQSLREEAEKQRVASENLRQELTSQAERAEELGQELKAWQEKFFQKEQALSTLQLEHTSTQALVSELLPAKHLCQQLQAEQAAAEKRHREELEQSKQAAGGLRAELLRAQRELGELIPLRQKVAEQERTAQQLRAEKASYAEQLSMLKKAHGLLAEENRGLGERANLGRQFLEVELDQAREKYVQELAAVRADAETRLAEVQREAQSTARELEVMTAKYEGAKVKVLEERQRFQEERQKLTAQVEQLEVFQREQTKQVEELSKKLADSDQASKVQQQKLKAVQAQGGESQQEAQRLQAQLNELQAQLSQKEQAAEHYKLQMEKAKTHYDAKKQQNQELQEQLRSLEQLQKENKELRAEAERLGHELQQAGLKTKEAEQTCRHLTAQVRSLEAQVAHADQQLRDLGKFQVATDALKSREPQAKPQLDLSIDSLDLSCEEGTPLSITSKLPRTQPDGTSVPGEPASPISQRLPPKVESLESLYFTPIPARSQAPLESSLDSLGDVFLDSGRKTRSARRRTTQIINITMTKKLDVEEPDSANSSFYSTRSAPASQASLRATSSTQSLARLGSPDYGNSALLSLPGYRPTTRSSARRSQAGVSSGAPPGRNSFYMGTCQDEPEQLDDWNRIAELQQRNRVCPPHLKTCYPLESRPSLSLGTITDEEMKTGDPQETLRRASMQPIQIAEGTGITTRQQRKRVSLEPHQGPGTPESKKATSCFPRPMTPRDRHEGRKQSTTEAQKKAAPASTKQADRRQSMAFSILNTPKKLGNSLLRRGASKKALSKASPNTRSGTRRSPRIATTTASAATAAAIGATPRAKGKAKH
UniProt Q9BQG2: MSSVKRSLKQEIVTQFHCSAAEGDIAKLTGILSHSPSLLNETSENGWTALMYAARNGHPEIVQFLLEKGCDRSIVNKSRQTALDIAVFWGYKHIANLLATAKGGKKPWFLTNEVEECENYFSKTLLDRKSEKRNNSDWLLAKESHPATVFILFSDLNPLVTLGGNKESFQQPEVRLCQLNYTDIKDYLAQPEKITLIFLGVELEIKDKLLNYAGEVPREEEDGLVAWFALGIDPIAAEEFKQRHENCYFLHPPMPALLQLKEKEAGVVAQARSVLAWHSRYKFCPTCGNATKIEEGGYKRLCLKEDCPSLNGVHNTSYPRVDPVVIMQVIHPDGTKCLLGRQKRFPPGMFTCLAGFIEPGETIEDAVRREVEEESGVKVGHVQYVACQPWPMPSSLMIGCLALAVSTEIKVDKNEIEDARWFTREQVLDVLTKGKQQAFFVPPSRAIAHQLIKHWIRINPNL
UniProt Q7Z417: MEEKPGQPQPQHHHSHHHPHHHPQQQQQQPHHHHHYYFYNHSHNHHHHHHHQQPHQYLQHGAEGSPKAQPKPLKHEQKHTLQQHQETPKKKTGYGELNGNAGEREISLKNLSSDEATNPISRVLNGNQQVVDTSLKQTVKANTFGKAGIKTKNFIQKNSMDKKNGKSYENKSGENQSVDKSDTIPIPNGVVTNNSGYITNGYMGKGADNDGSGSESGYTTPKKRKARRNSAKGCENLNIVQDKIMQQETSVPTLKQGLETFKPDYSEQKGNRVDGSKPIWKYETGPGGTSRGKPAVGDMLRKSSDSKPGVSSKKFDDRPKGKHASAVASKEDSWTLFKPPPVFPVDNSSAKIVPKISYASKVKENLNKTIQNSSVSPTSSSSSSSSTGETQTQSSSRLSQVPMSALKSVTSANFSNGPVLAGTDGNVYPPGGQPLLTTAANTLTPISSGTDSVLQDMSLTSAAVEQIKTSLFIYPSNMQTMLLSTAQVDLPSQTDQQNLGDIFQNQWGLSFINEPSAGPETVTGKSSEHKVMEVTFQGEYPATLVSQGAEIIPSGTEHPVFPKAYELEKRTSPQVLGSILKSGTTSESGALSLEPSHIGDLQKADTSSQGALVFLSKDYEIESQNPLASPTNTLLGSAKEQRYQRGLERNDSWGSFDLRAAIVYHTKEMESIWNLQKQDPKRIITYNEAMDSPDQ
UniProt Q96MF7: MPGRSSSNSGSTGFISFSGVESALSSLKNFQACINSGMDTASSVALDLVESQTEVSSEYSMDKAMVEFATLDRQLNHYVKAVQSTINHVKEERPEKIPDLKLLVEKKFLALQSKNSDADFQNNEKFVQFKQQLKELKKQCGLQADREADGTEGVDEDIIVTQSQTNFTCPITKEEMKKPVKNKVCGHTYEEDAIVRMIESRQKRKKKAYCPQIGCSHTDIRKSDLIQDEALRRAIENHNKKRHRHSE
UniProt O75694: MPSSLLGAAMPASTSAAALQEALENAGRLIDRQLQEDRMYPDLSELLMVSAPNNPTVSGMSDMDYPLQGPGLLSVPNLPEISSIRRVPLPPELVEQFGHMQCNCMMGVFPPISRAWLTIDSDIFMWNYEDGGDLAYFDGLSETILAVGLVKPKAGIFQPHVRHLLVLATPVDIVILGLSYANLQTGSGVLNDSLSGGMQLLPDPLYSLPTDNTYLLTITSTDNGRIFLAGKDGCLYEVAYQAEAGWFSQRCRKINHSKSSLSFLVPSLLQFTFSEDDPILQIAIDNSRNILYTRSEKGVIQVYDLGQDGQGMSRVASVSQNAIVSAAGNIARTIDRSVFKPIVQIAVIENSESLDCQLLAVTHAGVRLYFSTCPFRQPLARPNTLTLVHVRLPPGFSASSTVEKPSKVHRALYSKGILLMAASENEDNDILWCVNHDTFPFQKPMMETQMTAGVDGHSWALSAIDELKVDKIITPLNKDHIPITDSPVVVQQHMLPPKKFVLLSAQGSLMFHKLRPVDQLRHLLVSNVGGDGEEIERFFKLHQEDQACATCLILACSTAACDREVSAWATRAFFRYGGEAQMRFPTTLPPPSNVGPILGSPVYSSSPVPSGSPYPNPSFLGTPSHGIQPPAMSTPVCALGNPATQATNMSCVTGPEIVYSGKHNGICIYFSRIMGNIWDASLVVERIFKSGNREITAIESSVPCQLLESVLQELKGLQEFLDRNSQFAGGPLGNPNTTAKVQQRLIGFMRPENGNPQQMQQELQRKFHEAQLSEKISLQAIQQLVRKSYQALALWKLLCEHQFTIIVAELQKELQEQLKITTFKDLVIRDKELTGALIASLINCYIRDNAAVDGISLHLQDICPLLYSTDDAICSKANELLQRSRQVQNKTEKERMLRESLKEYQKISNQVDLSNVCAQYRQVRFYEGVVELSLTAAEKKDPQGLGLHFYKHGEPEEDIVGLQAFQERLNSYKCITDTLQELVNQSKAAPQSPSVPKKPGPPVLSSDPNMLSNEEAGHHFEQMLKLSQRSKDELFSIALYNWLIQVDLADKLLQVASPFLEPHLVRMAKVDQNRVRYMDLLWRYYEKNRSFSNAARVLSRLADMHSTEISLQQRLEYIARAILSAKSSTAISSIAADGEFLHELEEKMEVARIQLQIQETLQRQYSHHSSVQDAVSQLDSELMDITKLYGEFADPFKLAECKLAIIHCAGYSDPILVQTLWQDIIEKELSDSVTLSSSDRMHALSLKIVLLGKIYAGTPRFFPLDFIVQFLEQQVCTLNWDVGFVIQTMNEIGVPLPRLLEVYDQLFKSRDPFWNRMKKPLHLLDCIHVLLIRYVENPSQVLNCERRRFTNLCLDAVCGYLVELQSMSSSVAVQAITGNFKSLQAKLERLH
UniProt Q9H1E3: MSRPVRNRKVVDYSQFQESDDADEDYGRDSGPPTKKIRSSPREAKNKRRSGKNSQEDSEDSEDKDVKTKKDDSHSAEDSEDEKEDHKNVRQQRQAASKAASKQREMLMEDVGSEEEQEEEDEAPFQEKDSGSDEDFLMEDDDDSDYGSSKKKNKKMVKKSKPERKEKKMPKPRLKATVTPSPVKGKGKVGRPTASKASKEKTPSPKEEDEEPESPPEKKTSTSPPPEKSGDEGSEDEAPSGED
UniProt Q969T7: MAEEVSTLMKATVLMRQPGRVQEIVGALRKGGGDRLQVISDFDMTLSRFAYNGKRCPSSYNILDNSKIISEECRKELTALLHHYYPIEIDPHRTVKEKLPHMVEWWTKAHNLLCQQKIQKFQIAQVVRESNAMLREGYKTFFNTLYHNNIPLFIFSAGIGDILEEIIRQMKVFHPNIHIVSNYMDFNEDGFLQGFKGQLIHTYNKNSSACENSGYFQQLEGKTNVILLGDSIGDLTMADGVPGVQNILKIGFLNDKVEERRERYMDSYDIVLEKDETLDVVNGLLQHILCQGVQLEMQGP
UniProt Q9HAN9, whole entry, looked up: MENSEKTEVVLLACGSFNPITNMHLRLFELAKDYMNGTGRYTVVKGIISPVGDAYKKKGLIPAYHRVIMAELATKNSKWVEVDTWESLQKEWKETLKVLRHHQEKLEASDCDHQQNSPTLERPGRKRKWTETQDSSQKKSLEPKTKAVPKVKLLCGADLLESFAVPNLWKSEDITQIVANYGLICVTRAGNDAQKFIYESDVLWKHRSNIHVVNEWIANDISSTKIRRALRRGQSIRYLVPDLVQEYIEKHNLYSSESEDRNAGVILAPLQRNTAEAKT
UniProt Q96D46: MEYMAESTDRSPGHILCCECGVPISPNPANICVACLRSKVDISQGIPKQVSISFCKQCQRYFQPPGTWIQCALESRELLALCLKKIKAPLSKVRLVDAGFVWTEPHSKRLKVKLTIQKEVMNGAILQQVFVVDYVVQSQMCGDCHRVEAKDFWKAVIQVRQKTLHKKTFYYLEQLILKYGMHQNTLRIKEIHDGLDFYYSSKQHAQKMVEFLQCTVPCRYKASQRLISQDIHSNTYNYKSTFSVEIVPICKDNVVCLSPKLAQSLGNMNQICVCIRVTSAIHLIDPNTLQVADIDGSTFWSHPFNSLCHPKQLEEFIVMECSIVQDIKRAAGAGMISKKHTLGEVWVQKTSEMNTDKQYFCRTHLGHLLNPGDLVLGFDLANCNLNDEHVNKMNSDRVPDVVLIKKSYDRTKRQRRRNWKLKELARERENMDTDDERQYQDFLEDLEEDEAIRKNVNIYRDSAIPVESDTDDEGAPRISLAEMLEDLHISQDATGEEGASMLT
UniProt Q9BSD7: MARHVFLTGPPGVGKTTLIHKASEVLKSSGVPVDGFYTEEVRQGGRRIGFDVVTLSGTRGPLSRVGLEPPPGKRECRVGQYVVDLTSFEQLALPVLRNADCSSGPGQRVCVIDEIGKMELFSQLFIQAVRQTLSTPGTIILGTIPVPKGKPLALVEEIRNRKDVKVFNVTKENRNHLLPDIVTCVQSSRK
UniProt Q8WVJ2: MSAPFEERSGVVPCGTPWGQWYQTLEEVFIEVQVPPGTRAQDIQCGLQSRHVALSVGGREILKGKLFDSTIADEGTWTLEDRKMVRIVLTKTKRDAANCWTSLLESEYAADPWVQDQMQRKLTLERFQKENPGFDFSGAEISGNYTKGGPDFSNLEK

Columns and labels:
Test in all cases: log2 fold change, soluble protein after heating vs DMSO (PISA); higher = thermal stabilisation; K562 lysate, 10 uM; active = over 0.2 and 3.5 SD of the protein, either way, in both replicates (recomputed)
vemurafenib = compound: CCCS(=O)(=O)Nc1ccc(F)c(C(=O)c2c[nH]c3ncc(-c4ccc(Cl)cc4)cc23)c1F [vemurafenib]
Method in brief: (§1)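 Pellets of K562 cells were dounce-homogenised in PBS pH 7.4 with 1 mM MgCl2, and the crude extract was held at 1 mg/mL protein for a 30 min treatment with 10 μM compound. Aliquots were heated for 3 min over 48°C-58°C and pooled before NP-40 was added to 0.5% at 4°C. The supernatant from 21,000xg for 90 min was quantified by TMTpro 16plex LC-MS/MS with channel sums equalised. Values are reported from duplicates as log-two fold change in thermal stability relative to solvent controls.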

[1] = compound: CCCS(=O)(=O)Nc1ccc(F)c(C(=O)c2c[nH]c3ncc(Cl)cc23)c1F
Method in brief: as §1

barasertib = compound: CCN(CCCOc1ccc2c(Nc3cc(CC(=O)Nc4cccc(F)c4)[nH]n3)ncnc2c1)CCOP(=O)(O)O [barasertib]
Method in brief: as §1

[2] = compound: CC[C@@H]1C(=O)N(C)c2cnc(Nc3ccc(C(=O)NC4CCN(C)CC4)cc3OC)nc2N1C1CCCC1
Method in brief: as §1

volasertib = compound: CC[C@@H]1C(=O)N(C)c2cnc(Nc3ccc(C(=O)N[C@H]4CC[C@H](N5CCN(CC6CC6)CC5)CC4)cc3OC)nc2N1C(C)C [volasertib]
Method in brief: as §1

[3] = compound: CCn1c(C(=O)N(C2CC2)C2CC2)cc2c3c(ncn3C)c(Nc3cc(C)n(C)n3)nc21
Method in brief: as §1

[4] = compound: CCn1cc(-c2ccnc3[nH]c(-c4cccc(CN(C)C)c4)cc23)c(-c2ccc(NC(=O)N(C)C)cc2)n1
Method in brief: as §1

[5] = compound: CN1CCC(CNc2ccc3ncc(-c4cccc(OC(F)(F)F)c4)n3n2)CC1
Method in brief: as §1

saracatinib = compound: CN1CCN(CCOc2cc(OC3CCOCC3)c3c(Nc4c(Cl)ccc5c4OCO5)ncnc3c2)CC1 [saracatinib]
Method in brief: as §1

sotrastaurin = compound: CN1CCN(c2nc(C3=C(c4c[nH]c5ccccc45)C(=O)NC3=O)c3ccccc3n2)CC1 [sotrastaurin]
Method in brief: as §1

alvocidib = compound: CN1CC[C@H](c2c(O)cc(O)c3c(=O)cc(-c4ccccc4Cl)oc23)[C@H](O)C1 [alvocidib]
Method in brief: as §1

Tubastatin A = compound: CN1CCc2c(c3ccccc3n2Cc2ccc(C(=O)NO)cc2)C1 [Tubastatin A]
Method in brief: as §1

[6] = compound: CNC(=O)C1=CC=CC=C1NC2=NC(=NC=C2Cl)NC3=C(C=C(C=C3)N4CCOCC4)OC
Method in brief: as §1

defactinib = compound: CNC(=O)c1ccc(Nc2ncc(C(F)(F)F)c(NCc3nccnc3N(C)S(C)(=O)=O)n2)cc1 [defactinib]
Method in brief: as §1

[7] = compound: CNc1nc(-c2ccc3c(N)n[nH]c3c2)cc(N2C[C@@H](C(=O)NC3CCCCC3)CC[C@H]2C)n1
Method in brief: as §1

encorafenib = compound: COC(=O)N[C@@H](C)CNc1nccc(-c2cn(C(C)C)nc2-c2cc(Cl)cc(NS(C)(=O)=O)c2F)n1 [encorafenib]
Method in brief: as §1

[8] = compound: COC(=O)[C@H](CCSC)NC(=O)C1=C(C=C(C=C1)NC[C@H](CS)N)C2=CC=CC=C2
Method in brief: as §1

alisertib = compound: COc1cc(Nc2ncc3c(n2)-c2ccc(Cl)cc2C(c2c(F)cccc2OC)=NC3)ccc1C(=O)O [alisertib]
Method in brief: as §1

[9] = compound: COc1cc2nc(-c3cc(F)ccc3O)nc(N[C@@H]3CNC[C@H]3C(C)(C)O)c2cc1OC
Method in brief: as §1

gefitinib = compound: COc1cc2ncnc(Nc3ccc(F)c(Cl)c3)c2cc1OCCCN1CCOCC1 [gefitinib]
Method in brief: as §1

Measured: log2 fold change

NSMCE3 (UniProt Q96MG7)
inactive: vemurafenib -0.004 | [1] 0.024 | barasertib 0.01 | [2] 0.02 | volasertib -0.045 | [3] -0.02 | [4] 0.012 | [5] -0.022 | saracatinib -0.024 | sotrastaurin -0.065 | alvocidib -0.014 | Tubastatin A -0.029 | [6] 0.03 | defactinib -0.013 | [7] -0.048 | encorafenib 0.034 | [8] 0.052 | alisertib -0.016 | [9] -0.057 | gefitinib 0.067

NUDT4 (UniProt Q9NZJ9)
inactive: vemurafenib -0.24 | [1] 0.04 | barasertib -0.032 | [2] -0.078 | volasertib -0.054 | [3] 0.082 | [4] 0.23 | [5] 0.005 | saracatinib -0.03 | sotrastaurin 0.005 | alvocidib -0.001 | Tubastatin A -0.149 | [6] 0.063 | defactinib 0.153 | [7] -0.066 | encorafenib 0.051 | [8] -0.17 | alisertib -0.036 | [9] 0.001 | gefitinib -0.052

NUMA1 (UniProt Q14980)
inactive: vemurafenib -0.013 | [1] 0.019 | barasertib 0.015 | [2] -0.001 | volasertib -0.01 | [3] 0.041 | [4] 0.009 | [5] -0.014 | saracatinib 0.007 | sotrastaurin -0.01 | alvocidib -0.004 | Tubastatin A -0.037 | [6] 0.032 | defactinib -0.017 | [7] 0.02 | encorafenib 0.038 | [8] 0.022 | alisertib 0.03 | [9] 0.003 | gefitinib -0.014

NUDT12 (UniProt Q9BQG2)
inactive: vemurafenib -0.005 | [1] -0.002 | barasertib 0.008 | [2] 0.036 | volasertib -0.002 | [3] -0.027 | [4] -0.035 | [5] 0.097 | saracatinib -0.015 | sotrastaurin 0.004 | alvocidib 0.014 | Tubastatin A 0 | [6] 0.059 | defactinib -0.004 | [7] 0.103 | encorafenib 0.036 | [8] -0.08 | alisertib -0.037 | [9] 0.02 | gefitinib 0.084

NUFIP2 (UniProt Q7Z417)
inactive: vemurafenib -0.019 | [1] 0.036 | barasertib -0.04 | [2] 0.04 | volasertib -0.002 | [3] 0.032 | [4] -0.026 | [5] 0.02 | saracatinib 0.007 | sotrastaurin 0.022 | alvocidib 0.002 | Tubastatin A 0.008 | [6] 0.022 | defactinib 0.085 | [7] 0.053 | encorafenib 0.043 | [8] 0.023 | alisertib -0.015 | [9] 0.009 | gefitinib 0.001

NSMCE2 (UniProt Q96MF7)
inactive: vemurafenib -0.05 | [1] -0.014 | barasertib 0.011 | [2] -0.035 | volasertib -0.013 | [3] 0.113 | [4] 0.065 | [5] -0.062 | saracatinib 0.023 | sotrastaurin 0.015 | alvocidib 0 | Tubastatin A -0.02 | [6] 0.098 | defactinib -0.026 | [7] -0.175 | encorafenib 0.006 | [8] -0.03 | alisertib -0.019 | [9] 0.012 | gefitinib 0.019

NUP155 (UniProt O75694)
inactive: vemurafenib 0.125 | [1] 0.031 | barasertib 0.001 | [2] 0.034 | volasertib -0.095 | [3] 0.046 | [4] -0.004 | [5] -0.031 | saracatinib -0.024 | sotrastaurin 0.052 | alvocidib -0.094 | Tubastatin A -0.047 | [6] 0.132 | defactinib 0.037 | [7] 0.056 | encorafenib -0.006 | [8] -0.078 | alisertib 0.021 | [9] 0.042 | gefitinib -0.011

NUCKS1 (UniProt Q9H1E3)
inactive: vemurafenib 0.006 | [1] -0.006 | barasertib -0.001 | [2] 0.057 | volasertib 0.017 | [3] -0.022 | [4] -0.012 | [5] -0.007 | saracatinib 0.043 | sotrastaurin -0.025 | alvocidib -0.009 | Tubastatin A 0.055 | [6] -0.001 | defactinib 0.02 | [7] 0.08 | encorafenib -0.026 | [8] -0.02 | alisertib 0.025 | [9] 0.01 | gefitinib -0.009

NT5C3B (UniProt Q969T7)
inactive: vemurafenib -0.002 | [1] -0.001 | barasertib -0.087 | [2] 0.052 | volasertib -0.083 | [3] 0.021 | [4] 0.014 | [5] 0.069 | saracatinib 0.058 | sotrastaurin 0.015 | alvocidib 0 | Tubastatin A -0.051 | [6] 0.008 | defactinib -0.056 | [7] -0.049 | encorafenib 0.044 | [8] -0.127 | alisertib -0.099 | [9] -0.011 | gefitinib 0.062

Two neighbouring records out of the list so far, for reference:
NUP155 (UniProt O75694)
inactive: vemurafenib 0.125 | [1] 0.031 | barasertib 0.001 | [2] 0.034 | volasertib -0.095 | [3] 0.046 | [4] -0.004 | [5] -0.031 | saracatinib -0.024 | sotrastaurin 0.052 | alvocidib -0.094 | Tubastatin A -0.047 | [6] 0.132 | defactinib 0.037 | [7] 0.056 | encorafenib -0.006 | [8] -0.078 | alisertib 0.021 | [9] 0.042 | gefitinib -0.011

NUCKS1 (UniProt Q9H1E3)
inactive: vemurafenib 0.006 | [1] -0.006 | barasertib -0.001 | [2] 0.057 | volasertib 0.017 | [3] -0.022 | [4] -0.012 | [5] -0.007 | saracatinib 0.043 | sotrastaurin -0.025 | alvocidib -0.009 | Tubastatin A 0.055 | [6] -0.001 | defactinib 0.02 | [7] 0.08 | encorafenib -0.026 | [8] -0.02 | alisertib 0.025 | [9] 0.01 | gefitinib -0.009

Later entries:

NMNAT1 (UniProt Q9HAN9)
inactive: vemurafenib 0.064 | [1] 0.023 | barasertib -0.011 | [2] -0.026 | volasertib -0.003 | [3] 0 | [4] 0.037 | [5] -0.009 | saracatinib 0.001 | sotrastaurin 0.019 | alvocidib 0.037 | Tubastatin A -0.021 | [6] 0.011 | defactinib -0.027 | [7] -0.001 | encorafenib 0.011 | [8] 0.124 | alisertib 0.012 | [9] 0.002 | gefitinib 0.074

NRBF2 (UniProt Q96F24)
inactive: vemurafenib -0.008 | [1] 0.038 | barasertib 0.022 | [2] 0.031 | volasertib -0.021 | [3] 0.045 | [4] -0.023 | [5] -0.023 | saracatinib -0.008 | sotrastaurin -0.005 | alvocidib 0.014 | Tubastatin A -0.08 | [6] 0.044 | defactinib -0.036 | [7] -0.004 | encorafenib 0.076 | [8] -0.087 | alisertib -0.015 | [9] -0.01 | gefitinib 0.017

NMD3 (UniProt Q96D46)
inactive: vemurafenib 0.008 | [1] 0.018 | barasertib 0.004 | [2] -0.006 | volasertib -0.01 | [3] 0 | [4] -0.01 | [5] 0.001 | saracatinib -0.006 | sotrastaurin -0.016 | alvocidib -0.001 | Tubastatin A -0.011 | [6] 0.019 | defactinib -0.033 | [7] 0.016 | encorafenib 0.007 | [8] -0.036 | alisertib -0.018 | [9] 0.012 | gefitinib -0.074

NUCB1 (UniProt Q02818)
inactive: vemurafenib 0.028 | [1] 0.016 | barasertib 0.025 | [2] 0.009 | volasertib 0.018 | [3] 0.026 | [4] 0.01 | [5] -0.019 | saracatinib 0.018 | sotrastaurin 0.008 | alvocidib 0.009 | Tubastatin A 0.057 | [6] -0.007 | defactinib -0.047 | [7] -0.019 | encorafenib -0.026 | [8] 0.011 | alisertib 0.01 | [9] 0.008 | gefitinib 0.021

NTPCR (UniProt Q9BSD7)
inactive: vemurafenib 0.055 | [1] -0.001 | barasertib 0.016 | [2] 0.005 | volasertib -0.066 | [3] 0.032 | [4] -0.038 | [5] -0.021 | saracatinib -0.009 | sotrastaurin 0.011 | alvocidib 0.007 | Tubastatin A -0.163 | [6] 0.055 | defactinib 0.009 | [7] 0.027 | encorafenib 0.005 | [8] -0.007 | alisertib 0.007 | [9] 0.058 | gefitinib -0.057

NUDCD2 (UniProt Q8WVJ2)
inactive: vemurafenib -0.022 | [1] 0.035 | barasertib 0.008 | [2] 0.047 | volasertib 0.02 | [3] -0.018 | [4] -0.031 | [5] 0.003 | saracatinib -0.014 | sotrastaurin -0.017 | alvocidib 0.002 | Tubastatin A 0.002 | [6] -0.004 | defactinib -0.034 | [7] 0.12 | encorafenib -0.015 | [8] -0.09 | alisertib 0.037 | [9] 0.015 | gefitinib -0.039

NPC2 (UniProt P61916)
inactive: vemurafenib -0.169 | [1] 0.002 | barasertib 0.053 | [2] 0.124 | volasertib 0.076 | [3] 0.051 | [4] -0.166 | [5] 0.078 | saracatinib -0.079 | sotrastaurin -0.023 | alvocidib -0.082 | Tubastatin A -0.019 | [6] 0.009 | defactinib 0.182 | [7] -0.119 | encorafenib 0.047 | [8] -0.146 | alisertib 0.069 | [9] 0 | gefitinib 0.031
